According to PubChem BioAssay AID1347076 (National Center for Advancing Translational Sciences (NCATS), 2019):
Hit rate of the full screen: of about 400,000 compounds, about 13,000 (3.2%) were called active. Inconclusive results, whose numbers are uncertain, are shown with a selection of clear calls. Calls follow the shape of the dose curve; as a rule, active = well fitted cell-killing curve with a large enough effect; inconclusive = small, poorly fitted or top-dose-only effect, or effect the other way; inactive = flat fitted curve, though single readings scatter. Potencies of inconclusive entries are doubtful fits and often do not repeat.
% is scaled to controls: 0 for no effect and ±100 for the full control effect; potency is read from the fitted curve at half-maximal effect.

Experiment: qHTS assay for MDR1-selective chemotherapeutics: Primary screen using the drug-selected MDR subline cells KB-V1; also: nearly all actives have a fitted effect of over 60% in size
Conditions: KB-V1 MDR cells viability, CellTiter-Glo, 72 h; activity change, negative = cytotoxicity: at 46.1 µM (top of the series)
Method in brief: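 Cytotoxicity toward P-gp-expressing KB-V1 cells was determined as loss of CellTiter-Glo luminescence after 72 h at 37 degrees C. Compounds were tested in quantitative HTS format across a concentration range, with curves fitted to normalized data.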
With COc1ccc(NC(=O)CSc2nc(-c3cccs3)cc(C(F)(F)F)n2)cc1Cl the Potency was active: 5.17 µM.
For COc1ccc2c3n([n+]([O-])c2c1)CCN=C3c1ccc(C)cc1, the “activity change, negative = cytotoxicity” value was inactive: -1.35%.
With CC(C)CCn1cnc2c(c1=O)c1nc3ccccc3nc1n2Cc1ccc2c(c1)OCO2 the Potency was inconclusive: 2.59 µM [cytotoxic, full curve, poor fit].
In the case of COc1cccc(N=C2SC(C(=O)Nc3ccccc3F)CC(=O)N2C)c1 (centres undefined), the Potency is reported as inconclusive: 23.1 µM [cytotoxic, single point].
In the case of COc1ccc(-c2cn(CCc3c[nH]c4ccccc34)nn2)cc1, the Potency is reported as inconclusive: 16.4 µM [cytotoxic, single point].
For O=C(NCc1cccs1)C1CCCN1C(=O)Nc1ccc(F)cc1 (centres undefined), the “activity change, negative = cytotoxicity” value was inactive: 0.171%.
In the case of Cc1cc(C(C)(C)C)oc1C(=O)N(CC(=O)NC1CCCC1)c1cccc(C(F)(F)F)c1, the Potency is reported as inconclusive: 18.4 µM [cytotoxic, single point].
In the case of COCCn1c(CN2CCN(c3cccc(Cl)c3)CC2)nc2c1c(=O)n(C)c(=O)n2C, the Potency is reported as inconclusive: 23.1 µM [cytotoxic, partial curve, poor fit].
In the case of Cc1ccc(CSC2=Nc3ccccc3C3=NC(CCC(=O)NC4CCCCC4)C(=O)N23)cc1 (centres undefined), the “activity change, negative = cytotoxicity” value is reported as inactive: -6.68%.
For Cc1ccc(CNC(=O)C(NS(=O)(=O)c2cccs2)C(C)C)cc1 (centres undefined), the Potency was inconclusive: 14.6 µM [cytotoxic, single point].
For CCc1ccccc1S(=O)(=O)Cc1ccc(C(=O)NCc2ccc(Cl)cc2)o1, the Potency was inconclusive: 23.1 µM [cytotoxic, single point].
In the case of Cn1nc(C(F)(F)F)c(C(=O)Nc2ccc(F)cc2F)c1Sc1cccc(C(F)(F)F)c1, the Potency is reported as active: 13 µM.
For O=C1NC[C@H](CCCCN2CCN(Cc3ccccc3)C(=O)C2=O)N(CCc2ccccc2)C1=O, the “activity change, negative = cytotoxicity” value was inactive: -0.3%.
With COC(=O)[C@H]1C[C@@H]1[C@H](NC(=O)c1cc(C)on1)c1ccccc1 the Potency was inconclusive: 5.17 µM [rising, full curve, poor fit].
For CCc1ccc(C(=O)CC2(O)C(=O)N(CCc3ccccc3)c3ccc(Br)cc32)cc1 (centres undefined), the Potency was inconclusive: 18.4 µM [cytotoxic, single point].
For COc1ccccc1-n1nnnc1SCC(=O)Nc1ccccn1, the Potency was active: 16.4 µM.
For Cc1cc(N2C(=O)C(O)=C(C(=O)c3cc4ccccc4o3)C2c2ccc([N+](=O)[O-])cc2)no1 (centres undefined), the “activity change, negative = cytotoxicity” value was inactive: 20.4%.
With COc1cc(OC)cc(C(=O)N/N=C2/SCC(=O)N2Cc2ccco2)c1 the Potency was inconclusive: 29.1 µM [cytotoxic, partial curve, poor fit].
With COc1ccc(OC)c(NC(=O)Cc2csc(NC(=O)Nc3ccccc3OC)n2)c1 the Potency was inconclusive: 29.1 µM [cytotoxic, single point].
